Laboratory results as given in paper PMC4937518.
No constants are given. Whether binding was seen depends on the method and setting. Binding seen in cells or lysates may run through a third protein. Binding can be weak; no strength is given.

Target: T1, acid-sphingomyelinase-like phosphodiesterase 3b (SMPDL3B) (human (endogenous in U2OS)) (UniProt Q92485)
T1 sequence: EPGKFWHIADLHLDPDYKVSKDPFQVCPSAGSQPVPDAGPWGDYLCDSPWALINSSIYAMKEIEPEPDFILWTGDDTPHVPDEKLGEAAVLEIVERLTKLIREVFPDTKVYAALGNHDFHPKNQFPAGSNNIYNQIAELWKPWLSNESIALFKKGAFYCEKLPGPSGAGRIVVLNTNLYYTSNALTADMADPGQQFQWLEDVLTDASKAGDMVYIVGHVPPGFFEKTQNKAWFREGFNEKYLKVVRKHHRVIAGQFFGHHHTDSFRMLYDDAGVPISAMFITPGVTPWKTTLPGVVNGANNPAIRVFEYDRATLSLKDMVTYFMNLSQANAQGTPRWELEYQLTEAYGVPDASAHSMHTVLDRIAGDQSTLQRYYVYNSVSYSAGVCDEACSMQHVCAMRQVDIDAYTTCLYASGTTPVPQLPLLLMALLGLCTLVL
Test: cross-linking + SEC; protein correlation profiling: U2OS cells crosslinked in vivo with 6% formaldehyde (30 min, room temperature), lysed in 4% SDS with TCEP, denaturing SEC (BioBasic SEC1000, 0.2% SDS, 100 mM NaCl, 10 mM NaPO4 pH 6.0, 30 °C), 48 fractions, crosslinks reversed by heat, LC-MS/MS, LFQ elution profiles, n = 3

## acid ceramidase (ASAH1) (human (endogenous in U2OS)) (enzyme)
  binding: binds
